The supplement of paper PMC10849652
The other results are listed elsewhere or left out.

The chains behind the UniProt entries cited, without tags or fusion partners. Where a name states a change or a piece, a line headed by the entry shows the natural chain unless it says otherwise.
UniProt Q96I51, whole entry, looked up: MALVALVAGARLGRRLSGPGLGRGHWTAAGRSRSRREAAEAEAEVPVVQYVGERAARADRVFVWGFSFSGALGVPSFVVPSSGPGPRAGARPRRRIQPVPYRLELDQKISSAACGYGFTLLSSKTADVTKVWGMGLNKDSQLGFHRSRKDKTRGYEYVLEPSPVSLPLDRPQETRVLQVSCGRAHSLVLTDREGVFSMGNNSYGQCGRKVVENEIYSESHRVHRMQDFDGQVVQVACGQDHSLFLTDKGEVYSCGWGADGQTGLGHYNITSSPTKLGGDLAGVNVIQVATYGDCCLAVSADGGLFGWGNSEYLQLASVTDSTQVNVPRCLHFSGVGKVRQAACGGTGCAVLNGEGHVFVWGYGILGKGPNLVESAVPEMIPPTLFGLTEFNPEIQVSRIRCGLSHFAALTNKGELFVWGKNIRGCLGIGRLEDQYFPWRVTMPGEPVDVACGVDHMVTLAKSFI
UniProt P48380: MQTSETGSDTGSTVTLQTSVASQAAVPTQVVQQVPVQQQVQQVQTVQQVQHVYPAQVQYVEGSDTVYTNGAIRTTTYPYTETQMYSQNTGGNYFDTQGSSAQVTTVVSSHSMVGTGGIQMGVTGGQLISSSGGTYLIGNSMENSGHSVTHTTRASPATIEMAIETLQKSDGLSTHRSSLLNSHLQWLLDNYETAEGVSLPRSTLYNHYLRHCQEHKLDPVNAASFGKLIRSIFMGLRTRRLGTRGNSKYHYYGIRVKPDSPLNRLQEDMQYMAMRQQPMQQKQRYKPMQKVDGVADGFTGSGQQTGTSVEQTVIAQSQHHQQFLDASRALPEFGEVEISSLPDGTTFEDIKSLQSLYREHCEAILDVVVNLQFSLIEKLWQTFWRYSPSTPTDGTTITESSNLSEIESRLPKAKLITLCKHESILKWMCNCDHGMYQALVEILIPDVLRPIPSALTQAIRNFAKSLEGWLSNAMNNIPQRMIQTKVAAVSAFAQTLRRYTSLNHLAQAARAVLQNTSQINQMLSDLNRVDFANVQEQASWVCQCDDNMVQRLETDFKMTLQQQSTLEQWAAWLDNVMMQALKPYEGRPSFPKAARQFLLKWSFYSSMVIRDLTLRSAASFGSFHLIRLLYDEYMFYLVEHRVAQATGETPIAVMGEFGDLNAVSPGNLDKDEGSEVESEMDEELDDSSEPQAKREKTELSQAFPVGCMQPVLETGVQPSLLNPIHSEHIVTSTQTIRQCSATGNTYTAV
UniProt Q8IUH3: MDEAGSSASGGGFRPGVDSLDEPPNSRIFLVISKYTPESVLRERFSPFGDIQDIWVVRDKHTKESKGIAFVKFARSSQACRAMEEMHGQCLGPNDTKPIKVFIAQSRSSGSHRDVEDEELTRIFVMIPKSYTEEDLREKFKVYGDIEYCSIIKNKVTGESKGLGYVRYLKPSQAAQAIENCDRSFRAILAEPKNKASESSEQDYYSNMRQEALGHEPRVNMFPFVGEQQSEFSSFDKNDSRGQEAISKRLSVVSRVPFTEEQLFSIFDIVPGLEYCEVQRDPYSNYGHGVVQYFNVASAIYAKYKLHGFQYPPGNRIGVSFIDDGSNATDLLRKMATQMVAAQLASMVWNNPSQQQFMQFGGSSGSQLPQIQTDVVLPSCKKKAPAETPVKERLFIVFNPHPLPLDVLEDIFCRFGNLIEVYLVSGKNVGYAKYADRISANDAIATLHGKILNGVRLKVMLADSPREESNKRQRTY
UniProt Q15291, whole entry, looked up: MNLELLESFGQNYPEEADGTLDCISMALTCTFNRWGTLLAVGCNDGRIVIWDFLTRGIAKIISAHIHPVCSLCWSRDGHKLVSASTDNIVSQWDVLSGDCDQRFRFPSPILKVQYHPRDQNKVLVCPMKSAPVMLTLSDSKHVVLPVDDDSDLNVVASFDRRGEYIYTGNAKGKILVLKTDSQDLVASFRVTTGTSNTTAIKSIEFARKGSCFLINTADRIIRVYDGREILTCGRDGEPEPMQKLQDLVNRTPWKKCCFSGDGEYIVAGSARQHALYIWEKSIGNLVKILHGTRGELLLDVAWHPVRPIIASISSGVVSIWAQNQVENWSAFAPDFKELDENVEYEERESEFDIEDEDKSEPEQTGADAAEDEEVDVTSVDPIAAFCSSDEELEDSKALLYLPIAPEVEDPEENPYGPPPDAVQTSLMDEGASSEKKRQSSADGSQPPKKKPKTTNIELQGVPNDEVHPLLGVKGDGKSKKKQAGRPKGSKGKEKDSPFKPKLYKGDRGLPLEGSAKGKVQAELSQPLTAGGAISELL
UniProt Q96EN9: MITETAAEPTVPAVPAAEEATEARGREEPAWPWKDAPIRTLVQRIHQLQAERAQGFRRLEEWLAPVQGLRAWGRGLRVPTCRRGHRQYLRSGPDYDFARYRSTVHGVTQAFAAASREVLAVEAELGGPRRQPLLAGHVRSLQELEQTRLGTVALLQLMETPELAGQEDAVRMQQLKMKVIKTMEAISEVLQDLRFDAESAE
UniProt Q9BQ04: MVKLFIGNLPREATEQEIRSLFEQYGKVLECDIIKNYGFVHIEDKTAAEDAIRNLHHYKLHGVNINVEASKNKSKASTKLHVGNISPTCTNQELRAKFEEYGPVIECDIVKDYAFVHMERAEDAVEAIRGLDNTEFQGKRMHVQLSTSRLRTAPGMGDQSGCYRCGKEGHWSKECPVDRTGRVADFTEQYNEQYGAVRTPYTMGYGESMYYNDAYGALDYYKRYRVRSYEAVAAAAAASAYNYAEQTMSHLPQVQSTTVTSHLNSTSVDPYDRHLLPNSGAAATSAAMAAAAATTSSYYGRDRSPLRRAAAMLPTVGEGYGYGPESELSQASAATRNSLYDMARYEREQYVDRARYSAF
UniProt P82980: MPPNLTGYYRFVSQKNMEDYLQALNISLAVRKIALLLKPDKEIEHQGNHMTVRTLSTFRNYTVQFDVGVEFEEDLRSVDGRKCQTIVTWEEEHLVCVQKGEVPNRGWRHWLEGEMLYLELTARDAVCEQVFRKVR
UniProt Q8N0V3: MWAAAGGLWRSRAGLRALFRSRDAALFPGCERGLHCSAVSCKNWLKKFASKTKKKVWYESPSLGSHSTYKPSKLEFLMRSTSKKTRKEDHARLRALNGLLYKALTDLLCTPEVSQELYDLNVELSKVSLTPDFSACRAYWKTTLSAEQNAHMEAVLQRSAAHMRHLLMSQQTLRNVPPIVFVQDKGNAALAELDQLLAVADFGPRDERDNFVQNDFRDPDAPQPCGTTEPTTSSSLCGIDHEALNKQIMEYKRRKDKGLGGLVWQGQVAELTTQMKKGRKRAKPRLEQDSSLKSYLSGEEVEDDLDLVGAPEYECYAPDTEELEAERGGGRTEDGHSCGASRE
UniProt Q96IC2: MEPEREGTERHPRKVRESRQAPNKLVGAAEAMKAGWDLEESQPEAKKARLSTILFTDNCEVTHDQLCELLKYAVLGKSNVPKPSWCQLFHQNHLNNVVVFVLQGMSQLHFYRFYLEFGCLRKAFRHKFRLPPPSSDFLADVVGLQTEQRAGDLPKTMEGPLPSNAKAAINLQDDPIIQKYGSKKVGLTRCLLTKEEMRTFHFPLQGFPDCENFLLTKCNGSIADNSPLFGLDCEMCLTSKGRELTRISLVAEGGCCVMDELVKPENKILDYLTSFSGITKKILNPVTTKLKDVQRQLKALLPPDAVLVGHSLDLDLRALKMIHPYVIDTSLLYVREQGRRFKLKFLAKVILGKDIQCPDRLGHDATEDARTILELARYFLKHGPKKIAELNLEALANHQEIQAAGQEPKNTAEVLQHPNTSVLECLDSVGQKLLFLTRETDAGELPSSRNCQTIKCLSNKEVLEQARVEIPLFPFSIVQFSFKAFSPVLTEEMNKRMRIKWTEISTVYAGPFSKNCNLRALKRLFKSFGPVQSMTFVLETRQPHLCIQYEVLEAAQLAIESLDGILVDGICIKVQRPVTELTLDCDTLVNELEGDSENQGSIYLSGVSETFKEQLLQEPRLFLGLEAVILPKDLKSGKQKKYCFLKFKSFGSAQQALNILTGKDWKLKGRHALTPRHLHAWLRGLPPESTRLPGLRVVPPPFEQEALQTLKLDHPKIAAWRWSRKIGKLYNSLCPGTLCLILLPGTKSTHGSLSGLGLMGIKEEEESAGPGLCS
UniProt O14593: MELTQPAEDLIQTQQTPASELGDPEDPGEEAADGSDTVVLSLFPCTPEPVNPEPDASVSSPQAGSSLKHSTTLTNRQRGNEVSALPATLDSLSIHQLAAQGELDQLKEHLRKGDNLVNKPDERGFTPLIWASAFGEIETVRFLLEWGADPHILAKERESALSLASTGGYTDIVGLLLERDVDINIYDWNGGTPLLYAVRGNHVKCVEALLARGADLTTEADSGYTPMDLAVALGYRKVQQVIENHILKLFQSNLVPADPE
UniProt Q6PCD5: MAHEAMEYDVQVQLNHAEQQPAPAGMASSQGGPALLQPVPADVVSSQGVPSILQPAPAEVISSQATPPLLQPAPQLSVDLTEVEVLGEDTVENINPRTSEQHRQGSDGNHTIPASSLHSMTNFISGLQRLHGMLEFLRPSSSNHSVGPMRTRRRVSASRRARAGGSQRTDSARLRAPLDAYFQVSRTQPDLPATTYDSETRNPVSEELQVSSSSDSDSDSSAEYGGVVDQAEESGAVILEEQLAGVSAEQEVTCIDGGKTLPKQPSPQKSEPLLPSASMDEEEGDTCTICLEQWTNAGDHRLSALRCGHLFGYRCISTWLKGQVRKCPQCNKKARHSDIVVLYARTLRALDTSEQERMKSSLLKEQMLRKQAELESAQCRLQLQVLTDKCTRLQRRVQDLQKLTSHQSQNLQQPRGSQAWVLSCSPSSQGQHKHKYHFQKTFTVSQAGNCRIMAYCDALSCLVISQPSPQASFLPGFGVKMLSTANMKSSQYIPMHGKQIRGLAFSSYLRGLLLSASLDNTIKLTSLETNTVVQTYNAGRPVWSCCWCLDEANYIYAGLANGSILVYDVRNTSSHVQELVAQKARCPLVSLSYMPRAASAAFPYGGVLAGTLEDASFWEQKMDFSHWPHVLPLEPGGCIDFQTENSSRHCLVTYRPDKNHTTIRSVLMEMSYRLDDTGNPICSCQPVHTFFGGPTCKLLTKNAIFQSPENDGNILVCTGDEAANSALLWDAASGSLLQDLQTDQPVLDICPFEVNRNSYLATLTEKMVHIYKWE
UniProt O00287: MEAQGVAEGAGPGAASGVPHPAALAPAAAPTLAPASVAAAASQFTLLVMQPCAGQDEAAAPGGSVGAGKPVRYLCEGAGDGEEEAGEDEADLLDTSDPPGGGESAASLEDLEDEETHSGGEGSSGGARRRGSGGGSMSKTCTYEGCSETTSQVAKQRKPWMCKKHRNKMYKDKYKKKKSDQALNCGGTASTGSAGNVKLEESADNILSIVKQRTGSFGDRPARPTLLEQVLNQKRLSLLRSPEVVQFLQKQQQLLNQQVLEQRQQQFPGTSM
UniProt Q9HBD1: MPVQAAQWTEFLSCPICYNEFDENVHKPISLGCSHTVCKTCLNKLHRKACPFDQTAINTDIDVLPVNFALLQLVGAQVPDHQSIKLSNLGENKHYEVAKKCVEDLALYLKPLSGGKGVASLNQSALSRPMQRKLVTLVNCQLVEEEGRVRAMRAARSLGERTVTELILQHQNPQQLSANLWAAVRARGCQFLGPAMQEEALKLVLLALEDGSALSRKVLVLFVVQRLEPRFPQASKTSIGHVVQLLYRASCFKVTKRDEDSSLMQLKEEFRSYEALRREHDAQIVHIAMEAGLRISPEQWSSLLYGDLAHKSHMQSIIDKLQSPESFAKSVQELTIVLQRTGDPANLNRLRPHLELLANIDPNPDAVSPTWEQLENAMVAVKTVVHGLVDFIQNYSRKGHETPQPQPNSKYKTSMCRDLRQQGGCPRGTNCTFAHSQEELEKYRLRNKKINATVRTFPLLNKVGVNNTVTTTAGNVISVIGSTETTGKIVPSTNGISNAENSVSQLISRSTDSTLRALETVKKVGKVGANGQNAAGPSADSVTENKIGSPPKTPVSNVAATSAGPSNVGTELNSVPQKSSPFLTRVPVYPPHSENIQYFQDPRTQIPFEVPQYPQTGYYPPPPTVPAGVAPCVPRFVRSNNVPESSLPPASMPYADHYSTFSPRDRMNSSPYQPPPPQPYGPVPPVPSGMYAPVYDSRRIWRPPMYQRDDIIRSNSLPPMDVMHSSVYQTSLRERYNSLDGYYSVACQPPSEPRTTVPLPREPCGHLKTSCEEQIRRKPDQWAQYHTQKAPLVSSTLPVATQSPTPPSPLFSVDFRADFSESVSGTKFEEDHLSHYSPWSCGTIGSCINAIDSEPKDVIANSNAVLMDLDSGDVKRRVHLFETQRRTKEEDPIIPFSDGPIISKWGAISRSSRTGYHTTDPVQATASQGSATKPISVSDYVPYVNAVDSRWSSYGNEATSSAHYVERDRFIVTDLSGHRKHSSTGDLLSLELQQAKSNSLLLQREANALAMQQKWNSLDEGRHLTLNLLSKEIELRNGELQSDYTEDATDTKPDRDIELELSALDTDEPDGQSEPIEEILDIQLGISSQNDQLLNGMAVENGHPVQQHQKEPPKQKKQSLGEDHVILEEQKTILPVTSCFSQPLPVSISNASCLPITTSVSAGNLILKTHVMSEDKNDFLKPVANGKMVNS

Key:
Assay in all cases: log2 fold change, soluble protein after heating vs DMSO (PISA); higher = thermal stabilisation; K562 lysate, 10 uM; active = over 0.2 and 3.5 SD of the protein, either way, in both replicates (recomputed)
[1] = compound: NCC(=O)Nc1ccc(-n2nc(C(F)(F)F)cc2-c2ccc3c(ccc4ccccc43)c2)cc1
Summary of the method: (§1)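 The values are log-two fold changes in thermal stability compared with solvent controls and come from duplicates. They were obtained by TMTpro 16plex LC-MS/MS, with channel sums equalised, on the supernatant after 21,000xg for 90 min. That supernatant came from crude K562 extract at 1 mg/mL protein treated with 10 μM compound for 30 min, heated for 3 min across 48°C-58°C, pooled and brought to 0.5% NP-40 at 4°C.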

vorinostat = compound: O=C(CCCCCCC(=O)Nc1ccccc1)NO [vorinostat]
Summary of the method: as §1

silmitasertib = compound: O=C(O)c1ccc2c(c1)nc(Nc1cccc(Cl)c1)c1ccncc12 [silmitasertib]
Summary of the method: as §1

[2] = compound: O=C1NC(=O)C(c2cnc3ccccn23)=C1c1cn2c3c(cc(F)cc13)CN(C(=O)N1CCCCC1)CC2
Summary of the method: as §1

entospletinib = compound: c1cn2cc(-c3ccc4cn[nH]c4c3)nc(Nc3ccc(N4CCOCC4)cc3)c2n1 [entospletinib]
Summary of the method: as §1

| Target | log2 fold change [1] | log2 fold change (vorinostat) | log2 fold change (silmitasertib) | log2 fold change [2] | log2 fold change (entospletinib) |
| --- | --- | --- | --- | --- | --- |
| RCC1L (UniProt Q96I51) | inactive: 0.015 | inactive: 0.058 | inactive: 0.009 | inactive: -0.027 | inactive: 0.014 |
| RASSF7 (UniProt Q02833) |  |  |  | inactive: -0.095 |  |
| RFT1 (UniProt Q96AA3) | inactive: 0.001 | inactive: 0.083 | inactive: 0.071 | inactive: 0.002 | inactive: -0.011 |
| RGS14 (UniProt O43566) |  | inactive: -0.095 | inactive: -0.124 | inactive: -0.036 | inactive: 0 |
| RFX3 (UniProt P48380) |  |  |  |  | inactive: 0.012 |
| RBM45 (UniProt Q8IUH3) |  |  |  | inactive: 0.093 |  |
| RGS19 (UniProt P49795) |  |  |  | inactive: 0.112 |  |
| RBBP5 isoform 2 (UniProt Q15291) | inactive: 0.22 |  |  | inactive: 0.322 | inactive: -0.191 |
| RHBDD1 (UniProt Q8TEB9) | inactive: -0.162 |  |  |  | inactive: 0.036 |
| RASSF3 (UniProt Q86WH2) |  |  |  | inactive: -0.017 |  |
| RGS3 (UniProt P49796) |  | inactive: -0.016 | inactive: -0.09 | inactive: 0.043 |  |
| RBM18 (UniProt Q96H35) | inactive: 0.06 |  |  |  | inactive: -0.039 |
| RCBTB1 (UniProt Q8NDN9) |  | inactive: -0.093 | inactive: 0.107 | inactive: 0.019 |  |
| RGL2 (UniProt O15211) |  | inactive: -0.121 | inactive: 0.129 | inactive: -0.035 |  |
| REXO1 (UniProt Q8N1G1) |  | inactive: -0.117 | inactive: 0.096 | inactive: 0.036 |  |
| RBFOX2 isoform 8 (UniProt O43251) |  | inactive: -0.12 | inactive: 0.116 | inactive: 0.168 | inactive: -0.207 |

| Target | log2 fold change [1] | log2 fold change (vorinostat) | log2 fold change (silmitasertib) | log2 fold change [2] | log2 fold change (entospletinib) |
| --- | --- | --- | --- | --- | --- |
| REX1BD (UniProt Q96EN9) |  | inactive: -0.139 | inactive: 0.028 | inactive: 0.024 | inactive: -0.265 |
| RELCH (UniProt Q9P260) | inactive: -0.056 |  |  | inactive: 0.129 |  |
| RBM4B (UniProt Q9BQ04) |  |  |  | inactive: -0.033 |  |
| RBL2 (UniProt Q08999) |  |  |  | inactive: 0.081 | inactive: -0.035 |
| RBP5 (UniProt P82980) | inactive: -0.086 | inactive: 0.077 | inactive: -0.114 | inactive: -0.023 | inactive: -0.074 |
| RHBDD2 isoform 2 (UniProt Q6NTF9) |  | inactive: 0.204 | inactive: -0.36 |  |  |
| RBFA (UniProt Q8N0V3) |  | inactive: 0.058 | inactive: -0.032 | inactive: -0.077 |  |
| RBMXL1 (UniProt Q96E39) | inactive: -0.012 |  |  | inactive: 0.014 | inactive: 0.101 |
| REXO5 (UniProt Q96IC2) | inactive: 0.021 | inactive: -0.137 | inactive: 0.068 |  | inactive: -0.023 |
| RESF1 (UniProt Q9HCM1) |  |  |  | inactive: -0.045 | inactive: -0.074 |
| RFXANK (UniProt O14593) | inactive: -0.087 | inactive: -0.092 | inactive: 0.019 | inactive: 0.02 | inactive: -0.052 |
| RFWD3 (UniProt Q6PCD5) | inactive: 0.089 | active: -0.444 | inactive: 0.061 | inactive: -0.027 | inactive: 0.043 |
| RFX2 (UniProt P48378) |  |  |  | inactive: 0.028 |  |
| RFXAP (UniProt O00287) | inactive: -0.022 | inactive: -0.034 | inactive: 0.012 | inactive: -0.068 | inactive: -0.081 |
| RGPD6 (UniProt H7BZ48) |  |  |  | inactive: 0.064 |  |
| RC3H2 (UniProt Q9HBD1) | inactive: -0.109 |  |  | inactive: 0.03 | inactive: -0.264 |

An excerpt from above with just log2 fold change (entospletinib), log2 fold change [2] and log2 fold change (vorinostat):
Target | log2 fold change (entospletinib) | log2 fold change [2] | log2 fold change (vorinostat)
RFXAP (UniProt O00287) | inactive: -0.081 | inactive: -0.068 | inactive: -0.034
RGPD6 (UniProt H7BZ48) |  | inactive: 0.064 | 
